Compound in this experiment: Cc1cc(ccc1-c1ccccc1)C(=O)N1CCCN(CC1)C(=O)CCl [compound 10]
Nature of the experiment: probe-labelled cysteine peptide fold change vs DMSO (competition) (log2 fold change); higher = less target engagement (more negative = stronger competition). The conditions noted are these: THP-1, incubation time: 4 h.

Chains of the proteins cited; added tags and fusions are not shown. Lines headed by an entry give the natural chain unless they say otherwise; changes in a name come on top.
UniProt P52306: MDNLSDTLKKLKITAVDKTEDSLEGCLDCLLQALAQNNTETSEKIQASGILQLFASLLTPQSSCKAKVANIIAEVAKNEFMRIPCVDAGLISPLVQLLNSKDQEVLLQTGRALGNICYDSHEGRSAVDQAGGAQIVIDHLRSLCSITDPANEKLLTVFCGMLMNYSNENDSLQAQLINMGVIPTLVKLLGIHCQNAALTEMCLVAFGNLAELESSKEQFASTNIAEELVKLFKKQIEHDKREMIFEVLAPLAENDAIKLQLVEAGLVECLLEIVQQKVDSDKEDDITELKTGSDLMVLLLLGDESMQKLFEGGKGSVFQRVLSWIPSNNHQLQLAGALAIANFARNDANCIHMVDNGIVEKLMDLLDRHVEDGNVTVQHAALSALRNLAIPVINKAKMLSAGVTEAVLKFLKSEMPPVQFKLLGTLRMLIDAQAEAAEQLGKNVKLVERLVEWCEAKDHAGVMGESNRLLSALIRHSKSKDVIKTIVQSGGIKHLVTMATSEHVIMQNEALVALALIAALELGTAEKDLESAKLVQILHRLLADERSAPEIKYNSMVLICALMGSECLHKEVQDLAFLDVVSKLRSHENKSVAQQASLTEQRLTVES
UniProt Q6GYQ0: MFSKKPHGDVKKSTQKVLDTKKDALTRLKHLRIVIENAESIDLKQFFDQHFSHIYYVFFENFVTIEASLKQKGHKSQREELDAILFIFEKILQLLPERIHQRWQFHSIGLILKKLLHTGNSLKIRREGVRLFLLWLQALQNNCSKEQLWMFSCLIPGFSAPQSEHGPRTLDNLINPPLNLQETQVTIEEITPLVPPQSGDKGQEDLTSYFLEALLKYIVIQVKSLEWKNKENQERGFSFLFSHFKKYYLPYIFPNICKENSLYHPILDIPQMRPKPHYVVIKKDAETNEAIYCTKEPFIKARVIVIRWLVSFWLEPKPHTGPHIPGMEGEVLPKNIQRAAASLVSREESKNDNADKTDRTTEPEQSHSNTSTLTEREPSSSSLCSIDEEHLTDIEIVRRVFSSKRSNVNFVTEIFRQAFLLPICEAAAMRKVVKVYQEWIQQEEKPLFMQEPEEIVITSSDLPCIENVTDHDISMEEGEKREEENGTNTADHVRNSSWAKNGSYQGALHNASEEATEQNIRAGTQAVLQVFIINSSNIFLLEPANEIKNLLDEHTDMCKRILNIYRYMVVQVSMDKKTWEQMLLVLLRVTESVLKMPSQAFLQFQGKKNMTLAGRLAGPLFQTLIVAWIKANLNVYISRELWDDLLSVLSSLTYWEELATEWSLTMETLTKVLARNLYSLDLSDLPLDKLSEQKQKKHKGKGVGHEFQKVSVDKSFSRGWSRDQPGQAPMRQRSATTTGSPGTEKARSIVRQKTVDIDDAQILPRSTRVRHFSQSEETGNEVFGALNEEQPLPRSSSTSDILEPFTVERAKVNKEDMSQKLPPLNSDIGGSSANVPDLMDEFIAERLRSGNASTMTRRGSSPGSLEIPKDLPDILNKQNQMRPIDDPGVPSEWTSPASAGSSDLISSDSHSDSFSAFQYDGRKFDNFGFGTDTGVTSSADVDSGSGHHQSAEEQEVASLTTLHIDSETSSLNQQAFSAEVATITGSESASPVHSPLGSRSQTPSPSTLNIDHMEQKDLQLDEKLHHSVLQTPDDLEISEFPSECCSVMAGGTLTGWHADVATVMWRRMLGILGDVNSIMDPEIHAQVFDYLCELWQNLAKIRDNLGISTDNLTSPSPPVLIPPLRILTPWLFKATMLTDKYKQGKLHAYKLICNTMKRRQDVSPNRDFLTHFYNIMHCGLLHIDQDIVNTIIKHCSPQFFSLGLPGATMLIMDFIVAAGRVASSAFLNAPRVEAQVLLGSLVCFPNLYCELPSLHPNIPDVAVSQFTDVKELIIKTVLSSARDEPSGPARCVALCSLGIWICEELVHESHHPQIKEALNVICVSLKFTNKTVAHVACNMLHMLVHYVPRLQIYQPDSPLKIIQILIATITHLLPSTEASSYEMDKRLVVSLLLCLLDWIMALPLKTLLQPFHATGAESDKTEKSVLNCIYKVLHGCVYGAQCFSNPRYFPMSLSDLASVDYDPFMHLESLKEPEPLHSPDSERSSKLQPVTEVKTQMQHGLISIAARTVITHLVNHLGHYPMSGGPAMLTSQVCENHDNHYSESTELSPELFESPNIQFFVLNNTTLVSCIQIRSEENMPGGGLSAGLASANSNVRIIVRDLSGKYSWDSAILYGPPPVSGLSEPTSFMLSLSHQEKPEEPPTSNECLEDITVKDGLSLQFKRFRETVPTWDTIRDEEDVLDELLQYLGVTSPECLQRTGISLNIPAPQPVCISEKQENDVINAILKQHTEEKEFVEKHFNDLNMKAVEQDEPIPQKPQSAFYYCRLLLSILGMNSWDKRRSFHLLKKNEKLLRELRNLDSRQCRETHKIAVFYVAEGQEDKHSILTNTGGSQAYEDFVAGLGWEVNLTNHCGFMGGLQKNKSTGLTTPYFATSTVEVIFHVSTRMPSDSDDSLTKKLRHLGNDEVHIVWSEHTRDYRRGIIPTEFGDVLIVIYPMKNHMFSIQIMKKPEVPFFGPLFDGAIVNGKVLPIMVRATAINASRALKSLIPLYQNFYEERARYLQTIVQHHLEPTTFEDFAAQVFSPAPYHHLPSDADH
UniProt Q06330: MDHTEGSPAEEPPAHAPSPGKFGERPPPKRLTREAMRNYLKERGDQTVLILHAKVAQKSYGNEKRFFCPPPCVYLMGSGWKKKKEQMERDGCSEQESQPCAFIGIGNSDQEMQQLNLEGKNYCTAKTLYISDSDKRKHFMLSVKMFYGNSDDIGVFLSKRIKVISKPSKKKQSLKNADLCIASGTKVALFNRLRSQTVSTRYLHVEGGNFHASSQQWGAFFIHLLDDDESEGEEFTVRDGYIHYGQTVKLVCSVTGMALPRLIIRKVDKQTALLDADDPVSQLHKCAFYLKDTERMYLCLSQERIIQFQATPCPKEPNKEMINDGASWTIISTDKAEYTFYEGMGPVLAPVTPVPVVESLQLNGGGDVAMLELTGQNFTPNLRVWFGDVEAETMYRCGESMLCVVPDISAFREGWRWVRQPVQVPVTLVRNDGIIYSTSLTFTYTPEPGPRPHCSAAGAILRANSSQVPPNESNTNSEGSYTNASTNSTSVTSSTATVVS
UniProt Q9Y256: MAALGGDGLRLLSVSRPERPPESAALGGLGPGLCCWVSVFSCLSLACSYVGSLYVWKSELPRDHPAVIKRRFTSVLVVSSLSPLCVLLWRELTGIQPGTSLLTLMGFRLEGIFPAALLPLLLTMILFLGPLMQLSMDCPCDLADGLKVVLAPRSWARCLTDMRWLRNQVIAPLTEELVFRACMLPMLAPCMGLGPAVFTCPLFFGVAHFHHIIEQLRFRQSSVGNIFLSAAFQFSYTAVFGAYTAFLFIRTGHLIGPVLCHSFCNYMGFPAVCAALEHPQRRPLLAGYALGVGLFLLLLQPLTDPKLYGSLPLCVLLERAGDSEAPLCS
UniProt O60518: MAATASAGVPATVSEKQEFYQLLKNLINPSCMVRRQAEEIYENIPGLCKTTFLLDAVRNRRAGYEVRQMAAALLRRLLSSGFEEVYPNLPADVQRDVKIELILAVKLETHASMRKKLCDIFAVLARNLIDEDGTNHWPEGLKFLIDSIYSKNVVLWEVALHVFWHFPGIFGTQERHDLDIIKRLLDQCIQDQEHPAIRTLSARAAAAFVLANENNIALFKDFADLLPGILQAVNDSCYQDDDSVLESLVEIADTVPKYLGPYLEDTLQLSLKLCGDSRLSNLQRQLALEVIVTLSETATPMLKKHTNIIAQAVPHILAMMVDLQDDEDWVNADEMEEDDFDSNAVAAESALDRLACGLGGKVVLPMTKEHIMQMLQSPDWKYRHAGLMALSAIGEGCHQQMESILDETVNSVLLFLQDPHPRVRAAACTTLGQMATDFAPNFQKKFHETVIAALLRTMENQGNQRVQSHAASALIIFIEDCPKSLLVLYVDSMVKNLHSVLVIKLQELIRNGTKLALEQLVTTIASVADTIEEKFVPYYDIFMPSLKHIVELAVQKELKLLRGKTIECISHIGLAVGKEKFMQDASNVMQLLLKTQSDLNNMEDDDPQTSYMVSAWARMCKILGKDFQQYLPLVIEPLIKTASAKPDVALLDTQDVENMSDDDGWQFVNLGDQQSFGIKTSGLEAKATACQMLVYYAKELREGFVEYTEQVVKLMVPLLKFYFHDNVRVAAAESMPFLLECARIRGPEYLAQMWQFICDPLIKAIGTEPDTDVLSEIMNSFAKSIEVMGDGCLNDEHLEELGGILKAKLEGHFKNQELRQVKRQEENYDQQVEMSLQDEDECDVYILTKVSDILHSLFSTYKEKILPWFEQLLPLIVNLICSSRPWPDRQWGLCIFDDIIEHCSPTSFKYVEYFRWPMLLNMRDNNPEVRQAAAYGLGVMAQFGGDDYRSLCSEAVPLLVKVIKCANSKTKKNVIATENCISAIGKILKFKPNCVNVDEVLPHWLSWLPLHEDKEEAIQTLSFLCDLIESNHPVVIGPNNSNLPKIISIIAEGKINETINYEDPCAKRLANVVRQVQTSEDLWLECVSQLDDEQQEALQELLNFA
UniProt Q8IY67: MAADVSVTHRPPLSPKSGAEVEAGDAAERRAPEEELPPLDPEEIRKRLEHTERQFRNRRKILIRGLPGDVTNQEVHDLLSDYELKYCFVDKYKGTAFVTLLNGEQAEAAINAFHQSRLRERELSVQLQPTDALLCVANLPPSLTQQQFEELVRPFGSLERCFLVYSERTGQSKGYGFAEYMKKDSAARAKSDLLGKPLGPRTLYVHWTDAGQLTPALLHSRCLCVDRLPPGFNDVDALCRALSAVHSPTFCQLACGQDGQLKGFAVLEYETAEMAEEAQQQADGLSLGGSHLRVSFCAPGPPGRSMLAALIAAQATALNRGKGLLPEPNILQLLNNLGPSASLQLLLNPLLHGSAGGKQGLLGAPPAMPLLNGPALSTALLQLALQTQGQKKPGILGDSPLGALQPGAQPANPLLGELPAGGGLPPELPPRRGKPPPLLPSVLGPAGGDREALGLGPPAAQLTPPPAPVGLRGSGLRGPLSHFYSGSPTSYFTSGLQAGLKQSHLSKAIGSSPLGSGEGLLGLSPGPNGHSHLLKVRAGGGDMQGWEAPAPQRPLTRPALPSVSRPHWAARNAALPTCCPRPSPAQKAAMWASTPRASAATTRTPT
UniProt Q96PK6: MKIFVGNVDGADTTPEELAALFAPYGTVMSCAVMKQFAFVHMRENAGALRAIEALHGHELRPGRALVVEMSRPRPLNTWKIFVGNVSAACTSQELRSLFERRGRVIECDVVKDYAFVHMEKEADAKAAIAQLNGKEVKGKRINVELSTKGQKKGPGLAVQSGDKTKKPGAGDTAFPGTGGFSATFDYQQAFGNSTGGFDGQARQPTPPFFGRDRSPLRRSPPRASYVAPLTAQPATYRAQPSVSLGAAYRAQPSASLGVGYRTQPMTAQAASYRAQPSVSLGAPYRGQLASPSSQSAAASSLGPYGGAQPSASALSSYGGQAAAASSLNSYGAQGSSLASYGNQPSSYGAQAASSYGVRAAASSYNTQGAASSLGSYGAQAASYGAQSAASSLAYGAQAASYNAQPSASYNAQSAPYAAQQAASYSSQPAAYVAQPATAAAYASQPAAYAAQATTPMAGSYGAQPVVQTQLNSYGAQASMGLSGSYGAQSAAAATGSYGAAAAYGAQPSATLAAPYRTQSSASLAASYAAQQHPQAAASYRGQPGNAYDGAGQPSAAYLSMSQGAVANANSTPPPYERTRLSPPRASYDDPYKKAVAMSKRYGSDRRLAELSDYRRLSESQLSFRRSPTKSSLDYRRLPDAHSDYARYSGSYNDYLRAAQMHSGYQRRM
UniProt Q9P258, whole entry, looked up: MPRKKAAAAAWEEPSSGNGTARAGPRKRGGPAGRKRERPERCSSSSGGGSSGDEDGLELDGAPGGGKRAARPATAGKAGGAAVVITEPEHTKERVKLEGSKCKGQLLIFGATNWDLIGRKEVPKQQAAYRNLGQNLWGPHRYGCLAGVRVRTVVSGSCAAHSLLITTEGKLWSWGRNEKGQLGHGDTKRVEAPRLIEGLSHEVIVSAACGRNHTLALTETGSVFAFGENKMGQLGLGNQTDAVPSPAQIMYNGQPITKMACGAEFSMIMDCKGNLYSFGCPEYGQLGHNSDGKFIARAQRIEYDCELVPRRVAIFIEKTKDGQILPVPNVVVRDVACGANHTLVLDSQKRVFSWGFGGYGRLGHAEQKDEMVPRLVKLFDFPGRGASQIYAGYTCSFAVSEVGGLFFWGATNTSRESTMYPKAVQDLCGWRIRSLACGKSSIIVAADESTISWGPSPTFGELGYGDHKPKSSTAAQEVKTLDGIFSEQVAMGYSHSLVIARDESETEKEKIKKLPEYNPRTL

Some of the results follow.
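Also: competitive profiling in live THP-1 cells: cysteine peptides tagged with an iodoacetamide desthiobiotin (IA-DTB) probe, intensity after compound treatment relative to DMSO-treated cells.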

“RBM5_P52756_766_CQGITAPIEAQVR (UniProt P52756)”: the “probe-labelled cysteine peptide fold change” value is -0.314 (10 µM) and -0.787 (50 µM).
For “RAP1GDS1_P52306_454_LVEWCEAK (UniProt P52306)”, the “probe-labelled cysteine peptide fold change” value (10 µM) was 0.159 and the “probe-labelled cysteine peptide fold change” value (50 µM) was 0.0381.
“RASAL3_Q86YV0_614_LLCPAILAPSLFGLAPDHPAPGPAR (UniProt Q86YV0)”: the “probe-labelled cysteine peptide fold change” value amounted to 0.184 (10 µM) and 0.0962 (50 µM).
Take “RANBP2_P49792_3032_EVADCFK (UniProt P49792)”: the “probe-labelled cysteine peptide fold change” value by setting is: (10 µM) 0.00151; (50 µM) 0.0357.
Turning to “RAP1GAP2_Q684P5_185_CEEAEGIEYLR (UniProt Q684P5)”, the “probe-labelled cysteine peptide fold change” value (10 µM) was -0.00551 and the “probe-labelled cysteine peptide fold change” value (50 µM) amounted to 0.439.
For “RALGAPA1_Q6GYQ0_424_QAFLLPICEAAAMR (UniProt Q6GYQ0)”, the “probe-labelled cysteine peptide fold change” value was found to be 0.0376 (10 µM) and 0.262 (50 µM).
The corresponding values for “RBPJ_Q06330_397_CGESMLCVVPDISAFR (UniProt Q06330)” are 0.406 and 0.28.
On to “RCE1_Q9Y256_314_LYGSLPLCVLLER (UniProt Q9Y256)”, for which the “probe-labelled cysteine peptide fold change” value runs as follows: (10 µM) -0.0215; (50 µM) 0.0721.
On to “RB1_P06400_283_EHECNIDEVK (UniProt P06400)”, for which the “probe-labelled cysteine peptide fold change” value reads like this: (10 µM) 0.125; (50 µM) -0.0092.
Taken in the same sequence, the figures for “RAP1GDS1_P52306_560+567_YNSMVLICALMGSECLHK (UniProt P52306)” were -0.0101 and -0.483.
As for “RANBP6_O60518_952_SLCSEAVPLLVK (UniProt O60518)”, the “probe-labelled cysteine peptide fold change” value (10 µM) was -0.17 and the “probe-labelled cysteine peptide fold change” value (50 µM) is -0.308.
Consider “RAVER1_Q8IY67_297_VSFCAPGPPGR (UniProt Q8IY67)”, for which the “probe-labelled cysteine peptide fold change” value runs as follows: (10 µM) -0.0288; (50 µM) -0.0827.
For “RBM14_Q96PK6_90_IFVGNVSAACTSQELR (UniProt Q96PK6)”, the “probe-labelled cysteine peptide fold change” value (10 µM) stood at 0.204 and the “probe-labelled cysteine peptide fold change” value (50 µM) was 0.0681.
For “RCC2_Q9P258_209_LIEGLSHEVIVSAACGR (UniProt Q9P258)”, the “probe-labelled cysteine peptide fold change” value stood at 0.0481 (10 µM) and 0.0891 (50 µM).

These data come from the supplement of paper PMC12067093, “Discovery and optimisation of a covalent ligand for TRIM25 and its application to targeted protein ubiquitination” (Chemical Science, 2025).
